According to article PMC4299515:
Results are given in words; binding and its absence hold for the method and conditions named. Binding can be weak; no strength is given.

Molecular target: T1, MBD1 in U2OS cells (F2H) (UniProt Q9Z2E2)
T1 sequence: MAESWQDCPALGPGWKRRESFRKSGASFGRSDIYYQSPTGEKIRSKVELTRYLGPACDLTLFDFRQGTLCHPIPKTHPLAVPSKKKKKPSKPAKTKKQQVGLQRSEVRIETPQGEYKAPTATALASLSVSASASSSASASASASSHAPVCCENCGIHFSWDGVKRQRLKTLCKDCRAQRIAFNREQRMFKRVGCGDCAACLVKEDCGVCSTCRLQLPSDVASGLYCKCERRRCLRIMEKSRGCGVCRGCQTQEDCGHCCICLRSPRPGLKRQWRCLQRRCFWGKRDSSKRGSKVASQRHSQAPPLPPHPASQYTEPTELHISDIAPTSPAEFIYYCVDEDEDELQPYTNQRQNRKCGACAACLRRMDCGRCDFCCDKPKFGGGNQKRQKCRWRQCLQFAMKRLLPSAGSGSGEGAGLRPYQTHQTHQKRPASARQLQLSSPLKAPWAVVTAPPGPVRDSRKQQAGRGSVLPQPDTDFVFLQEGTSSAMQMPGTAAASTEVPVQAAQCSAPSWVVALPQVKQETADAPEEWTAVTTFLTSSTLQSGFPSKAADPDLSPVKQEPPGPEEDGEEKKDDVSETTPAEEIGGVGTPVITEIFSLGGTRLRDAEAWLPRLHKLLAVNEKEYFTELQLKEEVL
Experiment: two-hybrid; fluorescent two-hybrid (F2H) in living human U2OS cells: GFP-tagged protein tethered to lac-operator arrays via GBP-LacI, recruitment of the RFP-tagged protein seen by colocalization

binding: binds
Substance: HP1 (isoform not named) in the F2H test with MBD1
